Measured values reported in the supplement of paper PMC10849652.
Some of the results follow.

Amino acid sequences for entries named in this document (tags omitted). A change or cut given only in a name is not applied to a line headed by its entry.
UniProt Q92625: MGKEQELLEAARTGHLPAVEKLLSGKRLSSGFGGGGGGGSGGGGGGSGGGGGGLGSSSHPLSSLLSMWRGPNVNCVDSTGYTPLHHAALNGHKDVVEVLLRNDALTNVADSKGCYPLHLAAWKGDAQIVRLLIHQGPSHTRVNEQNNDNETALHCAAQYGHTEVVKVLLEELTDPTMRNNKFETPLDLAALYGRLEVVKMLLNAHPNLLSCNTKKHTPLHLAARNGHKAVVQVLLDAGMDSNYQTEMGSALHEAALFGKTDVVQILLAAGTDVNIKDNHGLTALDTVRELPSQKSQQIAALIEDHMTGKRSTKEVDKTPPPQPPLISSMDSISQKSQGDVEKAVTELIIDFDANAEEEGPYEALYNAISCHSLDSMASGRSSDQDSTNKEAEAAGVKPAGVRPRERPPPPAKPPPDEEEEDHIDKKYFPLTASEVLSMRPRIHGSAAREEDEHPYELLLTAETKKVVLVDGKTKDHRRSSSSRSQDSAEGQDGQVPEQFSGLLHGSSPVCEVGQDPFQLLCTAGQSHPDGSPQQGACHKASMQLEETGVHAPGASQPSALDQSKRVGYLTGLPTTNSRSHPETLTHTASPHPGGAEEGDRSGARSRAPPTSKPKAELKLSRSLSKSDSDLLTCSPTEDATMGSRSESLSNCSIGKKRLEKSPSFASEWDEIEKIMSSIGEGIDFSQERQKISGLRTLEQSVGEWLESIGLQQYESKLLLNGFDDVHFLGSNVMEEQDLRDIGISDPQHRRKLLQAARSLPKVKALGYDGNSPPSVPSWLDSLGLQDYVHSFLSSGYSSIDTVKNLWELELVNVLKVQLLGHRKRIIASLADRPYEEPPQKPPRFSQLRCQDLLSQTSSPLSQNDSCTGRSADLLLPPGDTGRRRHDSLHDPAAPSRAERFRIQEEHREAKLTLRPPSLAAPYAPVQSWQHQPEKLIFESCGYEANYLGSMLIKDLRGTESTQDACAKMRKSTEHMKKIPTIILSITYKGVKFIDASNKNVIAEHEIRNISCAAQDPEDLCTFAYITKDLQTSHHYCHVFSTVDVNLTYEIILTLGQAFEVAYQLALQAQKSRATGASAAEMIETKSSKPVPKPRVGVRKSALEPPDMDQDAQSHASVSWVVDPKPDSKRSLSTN
UniProt Q8N6D5: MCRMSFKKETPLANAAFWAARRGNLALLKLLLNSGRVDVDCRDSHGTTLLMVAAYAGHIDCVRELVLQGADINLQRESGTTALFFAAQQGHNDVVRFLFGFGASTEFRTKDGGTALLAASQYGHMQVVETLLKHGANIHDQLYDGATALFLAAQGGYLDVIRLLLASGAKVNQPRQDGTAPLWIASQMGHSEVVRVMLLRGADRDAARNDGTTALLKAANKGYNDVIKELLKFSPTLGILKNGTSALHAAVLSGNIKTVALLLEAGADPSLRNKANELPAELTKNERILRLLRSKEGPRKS
UniProt O94788: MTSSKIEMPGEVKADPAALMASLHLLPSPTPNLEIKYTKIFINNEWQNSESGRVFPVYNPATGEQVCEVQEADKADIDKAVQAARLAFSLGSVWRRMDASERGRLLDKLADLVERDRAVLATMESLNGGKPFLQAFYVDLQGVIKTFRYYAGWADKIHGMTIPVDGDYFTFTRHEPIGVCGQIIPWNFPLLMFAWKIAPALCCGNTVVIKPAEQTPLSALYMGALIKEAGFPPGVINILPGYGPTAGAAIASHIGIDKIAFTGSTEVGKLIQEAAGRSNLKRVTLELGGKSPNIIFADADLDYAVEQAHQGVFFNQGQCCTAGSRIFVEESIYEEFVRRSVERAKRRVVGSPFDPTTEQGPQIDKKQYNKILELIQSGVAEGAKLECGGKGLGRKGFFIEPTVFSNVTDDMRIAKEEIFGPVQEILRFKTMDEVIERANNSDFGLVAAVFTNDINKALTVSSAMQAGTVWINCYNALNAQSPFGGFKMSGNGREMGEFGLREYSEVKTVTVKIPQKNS
UniProt P04075: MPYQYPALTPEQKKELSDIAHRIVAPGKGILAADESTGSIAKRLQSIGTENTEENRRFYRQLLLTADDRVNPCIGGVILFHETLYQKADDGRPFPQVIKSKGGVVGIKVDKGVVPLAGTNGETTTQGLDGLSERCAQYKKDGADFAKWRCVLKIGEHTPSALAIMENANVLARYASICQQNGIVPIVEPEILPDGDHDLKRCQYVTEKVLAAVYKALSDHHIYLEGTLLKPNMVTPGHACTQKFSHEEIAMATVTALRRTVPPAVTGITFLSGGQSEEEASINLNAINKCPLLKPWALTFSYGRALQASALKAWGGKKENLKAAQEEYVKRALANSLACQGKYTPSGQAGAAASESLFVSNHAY
UniProt Q96CW1: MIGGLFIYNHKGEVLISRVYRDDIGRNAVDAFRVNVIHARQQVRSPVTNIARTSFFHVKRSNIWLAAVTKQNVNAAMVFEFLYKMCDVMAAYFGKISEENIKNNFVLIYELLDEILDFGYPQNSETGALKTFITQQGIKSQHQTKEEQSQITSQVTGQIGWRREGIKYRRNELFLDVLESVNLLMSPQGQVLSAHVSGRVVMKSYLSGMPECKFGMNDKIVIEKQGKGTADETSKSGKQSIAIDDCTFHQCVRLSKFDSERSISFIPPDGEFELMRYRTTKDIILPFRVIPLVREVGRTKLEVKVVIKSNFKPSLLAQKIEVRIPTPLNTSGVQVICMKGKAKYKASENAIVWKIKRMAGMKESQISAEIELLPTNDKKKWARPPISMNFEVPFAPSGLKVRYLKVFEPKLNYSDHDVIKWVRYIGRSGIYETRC
UniProt P30038: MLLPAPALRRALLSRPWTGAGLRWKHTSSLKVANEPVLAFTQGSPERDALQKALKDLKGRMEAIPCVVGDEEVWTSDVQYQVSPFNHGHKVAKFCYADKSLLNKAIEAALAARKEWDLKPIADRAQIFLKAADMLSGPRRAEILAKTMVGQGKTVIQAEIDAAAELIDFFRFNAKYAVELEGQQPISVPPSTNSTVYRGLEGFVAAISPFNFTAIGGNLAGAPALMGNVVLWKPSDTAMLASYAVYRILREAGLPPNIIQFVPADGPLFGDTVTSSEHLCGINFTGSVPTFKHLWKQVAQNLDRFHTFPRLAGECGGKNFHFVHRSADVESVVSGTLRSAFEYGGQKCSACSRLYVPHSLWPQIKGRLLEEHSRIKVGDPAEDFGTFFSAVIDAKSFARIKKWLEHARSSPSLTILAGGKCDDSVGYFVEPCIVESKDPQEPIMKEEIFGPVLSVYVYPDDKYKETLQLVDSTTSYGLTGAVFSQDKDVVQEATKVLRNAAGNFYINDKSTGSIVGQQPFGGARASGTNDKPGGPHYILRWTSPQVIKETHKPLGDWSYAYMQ
UniProt Q6NS38: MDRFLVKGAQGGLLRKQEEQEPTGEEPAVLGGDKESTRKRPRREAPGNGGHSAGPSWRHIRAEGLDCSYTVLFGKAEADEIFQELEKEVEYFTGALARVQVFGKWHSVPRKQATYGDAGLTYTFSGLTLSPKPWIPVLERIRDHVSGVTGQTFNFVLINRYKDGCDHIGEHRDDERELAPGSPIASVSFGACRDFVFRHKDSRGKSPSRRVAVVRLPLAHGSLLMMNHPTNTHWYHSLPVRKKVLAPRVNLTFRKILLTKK
UniProt Q6ZTN6: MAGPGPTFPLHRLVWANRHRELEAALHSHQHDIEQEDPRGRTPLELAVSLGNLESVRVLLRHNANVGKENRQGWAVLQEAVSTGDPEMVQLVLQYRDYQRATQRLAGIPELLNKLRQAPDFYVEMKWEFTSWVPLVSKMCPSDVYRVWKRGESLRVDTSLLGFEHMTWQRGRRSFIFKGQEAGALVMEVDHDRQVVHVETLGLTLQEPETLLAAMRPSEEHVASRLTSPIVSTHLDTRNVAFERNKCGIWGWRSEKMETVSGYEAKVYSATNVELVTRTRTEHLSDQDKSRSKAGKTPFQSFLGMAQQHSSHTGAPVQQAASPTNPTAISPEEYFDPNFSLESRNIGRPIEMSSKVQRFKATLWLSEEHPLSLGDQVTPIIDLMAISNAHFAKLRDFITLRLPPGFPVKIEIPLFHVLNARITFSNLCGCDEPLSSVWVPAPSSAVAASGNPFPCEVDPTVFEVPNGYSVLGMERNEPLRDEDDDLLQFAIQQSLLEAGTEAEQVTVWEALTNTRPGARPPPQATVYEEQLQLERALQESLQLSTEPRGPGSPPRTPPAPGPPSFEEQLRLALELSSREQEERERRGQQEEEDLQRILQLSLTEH
UniProt Q4KMQ2: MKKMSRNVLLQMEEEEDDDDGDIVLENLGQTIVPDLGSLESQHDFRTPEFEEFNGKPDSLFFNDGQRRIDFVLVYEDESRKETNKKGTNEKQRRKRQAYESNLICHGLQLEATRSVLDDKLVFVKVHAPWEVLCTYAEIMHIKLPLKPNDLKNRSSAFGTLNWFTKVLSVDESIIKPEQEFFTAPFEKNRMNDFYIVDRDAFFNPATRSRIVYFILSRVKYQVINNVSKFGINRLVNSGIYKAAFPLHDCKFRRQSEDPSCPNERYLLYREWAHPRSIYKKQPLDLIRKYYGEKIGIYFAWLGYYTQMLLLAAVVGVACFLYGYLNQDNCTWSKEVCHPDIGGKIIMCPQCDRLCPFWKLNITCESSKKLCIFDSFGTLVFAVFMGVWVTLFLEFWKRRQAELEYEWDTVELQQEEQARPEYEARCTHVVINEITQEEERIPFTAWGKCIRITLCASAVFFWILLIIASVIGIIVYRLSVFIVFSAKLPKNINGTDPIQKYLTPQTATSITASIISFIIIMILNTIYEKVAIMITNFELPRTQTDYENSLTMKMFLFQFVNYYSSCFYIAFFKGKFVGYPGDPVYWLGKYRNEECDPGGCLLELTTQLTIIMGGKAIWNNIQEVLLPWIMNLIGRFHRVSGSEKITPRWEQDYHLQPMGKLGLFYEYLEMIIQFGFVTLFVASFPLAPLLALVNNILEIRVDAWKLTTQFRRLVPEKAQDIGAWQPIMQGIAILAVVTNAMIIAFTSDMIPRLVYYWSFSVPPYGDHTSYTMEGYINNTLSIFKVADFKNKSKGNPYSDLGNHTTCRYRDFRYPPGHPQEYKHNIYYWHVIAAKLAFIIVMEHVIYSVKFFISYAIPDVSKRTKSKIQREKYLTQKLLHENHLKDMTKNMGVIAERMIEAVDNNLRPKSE
UniProt Q9UJX6, whole entry, looked up: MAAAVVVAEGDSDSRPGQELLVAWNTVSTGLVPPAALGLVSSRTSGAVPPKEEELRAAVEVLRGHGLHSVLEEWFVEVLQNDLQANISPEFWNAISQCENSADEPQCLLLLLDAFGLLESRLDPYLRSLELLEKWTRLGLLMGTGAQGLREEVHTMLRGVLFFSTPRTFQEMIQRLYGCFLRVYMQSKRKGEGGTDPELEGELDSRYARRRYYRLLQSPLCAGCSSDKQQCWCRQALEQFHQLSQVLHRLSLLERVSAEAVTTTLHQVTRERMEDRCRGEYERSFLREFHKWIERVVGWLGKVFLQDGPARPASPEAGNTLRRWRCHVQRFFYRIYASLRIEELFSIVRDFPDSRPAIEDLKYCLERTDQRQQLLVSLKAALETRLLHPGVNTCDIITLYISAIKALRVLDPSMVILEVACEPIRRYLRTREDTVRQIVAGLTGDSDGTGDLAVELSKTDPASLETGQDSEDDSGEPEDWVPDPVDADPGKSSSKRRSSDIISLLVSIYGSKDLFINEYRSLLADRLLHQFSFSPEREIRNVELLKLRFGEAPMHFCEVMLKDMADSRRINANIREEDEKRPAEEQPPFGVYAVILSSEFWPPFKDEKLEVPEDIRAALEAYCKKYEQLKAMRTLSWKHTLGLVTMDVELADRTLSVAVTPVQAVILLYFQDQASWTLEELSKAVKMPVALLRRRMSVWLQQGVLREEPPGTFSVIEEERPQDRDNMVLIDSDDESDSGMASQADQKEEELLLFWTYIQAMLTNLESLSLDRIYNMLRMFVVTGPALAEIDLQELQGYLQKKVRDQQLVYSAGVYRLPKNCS
UniProt Q9BTT0: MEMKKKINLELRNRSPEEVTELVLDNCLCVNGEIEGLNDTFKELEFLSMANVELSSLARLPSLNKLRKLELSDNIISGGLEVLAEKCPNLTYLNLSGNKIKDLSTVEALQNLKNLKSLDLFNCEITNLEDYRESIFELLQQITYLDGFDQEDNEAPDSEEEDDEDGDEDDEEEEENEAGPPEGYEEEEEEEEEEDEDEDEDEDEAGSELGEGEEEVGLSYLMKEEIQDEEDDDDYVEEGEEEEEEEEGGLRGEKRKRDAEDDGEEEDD

What follows are targets tested with Cn1cncc1[C@@](N)(c1ccc(Cl)cc1)c1ccc2c(c1)c(-c1cccc(Cl)c1)cc(=O)n2C [tipifarnib] (assay: log2 fold change, soluble protein after heating vs DMSO (PISA); higher = thermal stabilisation; K562 lysate, 10 uM; active = over 0.2 and 3.5 SD of the protein, either way, in both replicates (recomputed)).
Summary of the method: (§1)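 K562 pellets were dounce-homogenised in PBS pH 7.4 containing 1 mM MgCl2, and the crude extract, at 1 mg/mL protein, was exposed to 10 μM compound for 30 min. Aliquots were heated for 3 min across 48°C-58°C, pooled, brought to 0.5% NP-40 at 4°C and spun at 21,000xg for 90 min, with the supernatant taken as soluble protein. TMTpro 16plex LC-MS/MS with equalised channel sums quantified that protein. Values are log-two fold changes in thermal stability relative to solvent controls, taken from duplicates.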

| Target | log2 fold change |
| --- | --- |
| ANXA6 (UniProt P08133) | inactive: 0.003 |
| ALAD (UniProt P13716) | inactive: -0.02 |
| AKT2 (UniProt P31751) | inactive: 0.017 |
| ANKS1A (UniProt Q92625) | inactive: -0.037 |
| ANO10 (UniProt Q9NW15) | inactive: -0.062 |
| ANKRD29 (UniProt Q8N6D5) | inactive: -0.321 |
| ALKBH8 isoform 4 (UniProt Q96BT7) | inactive: -0.01 |
| ALDH1A2 (UniProt O94788) | inactive: 0.011 |
| ANKHD1 isoform 6 (UniProt Q8IWZ3) | inactive: -0.029 |
| ALDOA (UniProt P04075) | inactive: 0.004 |
| AP2M1 (UniProt Q96CW1) | inactive: -0.021 |

Rewritten comma-delimited: part of the list above.
Target,log2 fold change
ANXA6 (UniProt P08133),inactive: 0.003
ANO10 (UniProt Q9NW15),inactive: -0.062
ALKBH8 isoform 4 (UniProt Q96BT7),inactive: -0.01
ANKHD1 isoform 6 (UniProt Q8IWZ3),inactive: -0.029
ALDOA (UniProt P04075),inactive: 0.004

The targets below were run with NC(=O)Nc1cc(-c2cccc(F)c2)sc1C(=O)N[C@H]1CCCNC1 in the same assay as above.
Summary of the method: as §1

| Target | log2 fold change |
| --- | --- |
| ALDH4A1 (UniProt P30038) | inactive: 0.071 |
| ALG8 (UniProt Q9BVK2) | inactive: 0.043 |
| AP3M1 (UniProt Q9Y2T2) | inactive: 0.018 |
| ALS2 (UniProt Q96Q42) | inactive: 0.014 |
| ANXA7 (UniProt P20073) | inactive: -0.003 |
| ALKBH2 (UniProt Q6NS38) | inactive: 0.001 |
| ANKRD13D isoform 3 (UniProt Q6ZTN6) | inactive: 0.012 |
| AMD1 (UniProt P17707) | inactive: 0.151 |
| AKT1S1 isoform 3 (UniProt Q96B36) | inactive: -0.004 |
| ANO6 (UniProt Q4KMQ2) | inactive: 0.02 |
| ANAPC2 (UniProt Q9UJX6) | inactive: 0.007 |
| ANP32E (UniProt Q9BTT0) | inactive: -0.011 |
